For two substances, binding results are on record in article PMC3150275.

Chains of the proteins cited; added tags and fusions are not shown. Residues count along the entry.
UniProt Q8Y3L4, residues 26-824: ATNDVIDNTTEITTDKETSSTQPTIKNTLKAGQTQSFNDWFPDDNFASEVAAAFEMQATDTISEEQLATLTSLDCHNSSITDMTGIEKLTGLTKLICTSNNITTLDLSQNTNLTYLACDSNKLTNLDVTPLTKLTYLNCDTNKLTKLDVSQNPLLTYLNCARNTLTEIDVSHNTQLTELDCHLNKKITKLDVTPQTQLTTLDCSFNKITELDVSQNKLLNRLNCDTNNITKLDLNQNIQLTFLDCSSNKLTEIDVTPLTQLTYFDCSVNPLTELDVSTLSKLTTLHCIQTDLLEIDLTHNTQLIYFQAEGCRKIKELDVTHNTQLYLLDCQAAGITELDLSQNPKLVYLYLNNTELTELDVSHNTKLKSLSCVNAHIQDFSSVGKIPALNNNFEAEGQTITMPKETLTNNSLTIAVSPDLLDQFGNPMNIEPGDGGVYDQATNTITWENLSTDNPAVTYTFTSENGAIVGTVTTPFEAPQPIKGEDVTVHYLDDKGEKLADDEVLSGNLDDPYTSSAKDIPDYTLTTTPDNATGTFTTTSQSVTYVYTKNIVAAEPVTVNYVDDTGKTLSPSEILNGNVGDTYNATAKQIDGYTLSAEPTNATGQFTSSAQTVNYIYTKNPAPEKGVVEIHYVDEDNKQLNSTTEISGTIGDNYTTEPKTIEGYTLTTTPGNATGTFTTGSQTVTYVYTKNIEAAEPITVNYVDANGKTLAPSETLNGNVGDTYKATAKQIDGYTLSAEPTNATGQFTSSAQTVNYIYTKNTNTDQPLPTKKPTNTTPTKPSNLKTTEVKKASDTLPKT
UniProt Q14764: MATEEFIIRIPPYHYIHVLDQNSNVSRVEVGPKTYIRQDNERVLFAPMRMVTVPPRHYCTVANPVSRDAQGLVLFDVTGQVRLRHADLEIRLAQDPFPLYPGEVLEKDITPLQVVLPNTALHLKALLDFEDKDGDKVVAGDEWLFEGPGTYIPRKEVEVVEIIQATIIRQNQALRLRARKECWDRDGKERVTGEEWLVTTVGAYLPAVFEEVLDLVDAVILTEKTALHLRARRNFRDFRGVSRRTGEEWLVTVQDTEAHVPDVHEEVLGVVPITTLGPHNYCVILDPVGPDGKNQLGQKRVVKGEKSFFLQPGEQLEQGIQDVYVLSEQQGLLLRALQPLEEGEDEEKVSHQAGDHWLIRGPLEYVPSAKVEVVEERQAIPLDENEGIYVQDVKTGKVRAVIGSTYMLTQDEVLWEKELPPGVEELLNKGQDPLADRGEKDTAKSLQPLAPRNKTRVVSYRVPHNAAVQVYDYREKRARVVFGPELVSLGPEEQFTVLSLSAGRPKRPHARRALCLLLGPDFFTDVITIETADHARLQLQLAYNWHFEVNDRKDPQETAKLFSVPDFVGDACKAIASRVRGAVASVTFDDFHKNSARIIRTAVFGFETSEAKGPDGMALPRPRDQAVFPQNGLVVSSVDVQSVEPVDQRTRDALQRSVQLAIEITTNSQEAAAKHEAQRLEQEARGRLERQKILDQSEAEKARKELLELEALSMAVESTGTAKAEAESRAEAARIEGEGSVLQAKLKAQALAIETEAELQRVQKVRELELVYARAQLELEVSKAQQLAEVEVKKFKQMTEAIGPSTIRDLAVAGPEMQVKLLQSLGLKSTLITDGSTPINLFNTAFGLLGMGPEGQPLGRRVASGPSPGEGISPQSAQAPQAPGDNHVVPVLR

These are yes or no findings as the source states them, for the method shown. In cells and extracts the contact can be indirect.

Experiment [1] has as its target InlJ on the surface of InlJ over-expressing L. monocytogenes (Listeria monocytogenes) (UniProt Q8Y3L4). Nature of the experiment: pull-down; bacterial pull-down: whole L. monocytogenes (1 ml, OD600 1.0) in 20 mM HEPES pH 7.5, 150 mM NaCl, 1 mM CaCl2, 1 mM MgCl2, 0.2% BSA, room temperature; GST fusion protein added (GST-MVP 1 µg/ml) for 1 h; washes with 300 mM NaCl, 0.05% Tween 20; Western blot of bacterial pellets; only the binder purified.

For experiment [2] the target is unchanged. The experiment is described as follows: pull-down; bacterial pull-down: whole L. monocytogenes incubated 1 h at room temperature with cleared lysates of MVP-GFP transfected HeLa cells (Tris-HCl 50 mM pH 7.5, NaCl 150 mM, EDTA 2 mM, NP40 1%); five washes; Western blot. On the technique in general: In western blotting, separated proteins are transferred to a membrane and probed.

Regarding “GST-tagged purified recombinant MVP protein (from UniProt Q14764 1-893)”, in experiment [1], the binding result is recorded as “no binding (tested: 1 µg/ml)”.

As to MVP-GFP (from UniProt Q14764 1-893), in experiment [2], the binding entry is recorded as “no binding”.
